These are yes or no findings as the source states them, for the method shown. Binding can be weak; no strength is given.
target: HLA-B*44:05 (human); test: UV peptide-exchange ELISA, yield grade

| Binder | binding |
| --- | --- |
| GEKATMQNL [… (SEQ ID NO: 81)] | binds |
| TEGGTQKTF [… (SEQ ID NO: 83)] | binds |
| AETSYVKVLEY [… (SEQ ID NO: 84)] | binds |
| SEIDEKVTDL [… (SEQ ID NO: 85)] | binds |
| QTLKAMVQAW [… (SEQ ID NO: 86)] | binds |
| GEARGDQVDW [… (SEQ ID NO: 87)] | binds |
| KEFYPVKEF [… (SEQ ID NO: 89)] | binds |
| EESLLSSW [EESLLSSW (SEQ ID NO: 90)] | binds |
| EESLLSSWDF [… (SEQ ID NO: 91)] | binds |
| KEPSQSCIAQY [… (SEQ ID NO: 92)] | binds |
| SEAGLTANQY [… (SEQ ID NO: 93)] | binds |
| SLAELIAKDW [… (SEQ ID NO: 94)] | binds |
| AAFEDAQGHIW [… (SEQ ID NO: 95)] | binds |
| MDELEEGESY [… (SEQ ID NO: 96)] | binds |
